The source of these data is paper doi:10.1101/2023.12.04.570005.

Sequences of proteins named here, by UniProt entry; tags and fusion partners are left off. A change or cut given only in a name is not applied to a line headed by its entry. A line that says so, or that is headed by a name, gives the form on record, which may keep a tag or linker.
UniProt P04198: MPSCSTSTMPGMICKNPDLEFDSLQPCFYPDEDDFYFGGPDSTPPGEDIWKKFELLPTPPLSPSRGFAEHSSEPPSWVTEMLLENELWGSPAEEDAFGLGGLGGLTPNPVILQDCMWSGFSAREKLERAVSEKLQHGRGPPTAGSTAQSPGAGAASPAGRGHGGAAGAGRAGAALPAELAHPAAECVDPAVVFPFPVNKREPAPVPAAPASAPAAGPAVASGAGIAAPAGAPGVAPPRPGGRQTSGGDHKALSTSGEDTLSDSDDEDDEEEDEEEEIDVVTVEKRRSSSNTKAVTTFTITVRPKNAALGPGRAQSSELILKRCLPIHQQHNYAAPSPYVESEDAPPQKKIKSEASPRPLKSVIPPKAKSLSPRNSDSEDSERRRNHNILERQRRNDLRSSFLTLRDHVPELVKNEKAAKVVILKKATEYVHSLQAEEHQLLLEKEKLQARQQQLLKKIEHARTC
HA-MYCN 2D (P04198, form named): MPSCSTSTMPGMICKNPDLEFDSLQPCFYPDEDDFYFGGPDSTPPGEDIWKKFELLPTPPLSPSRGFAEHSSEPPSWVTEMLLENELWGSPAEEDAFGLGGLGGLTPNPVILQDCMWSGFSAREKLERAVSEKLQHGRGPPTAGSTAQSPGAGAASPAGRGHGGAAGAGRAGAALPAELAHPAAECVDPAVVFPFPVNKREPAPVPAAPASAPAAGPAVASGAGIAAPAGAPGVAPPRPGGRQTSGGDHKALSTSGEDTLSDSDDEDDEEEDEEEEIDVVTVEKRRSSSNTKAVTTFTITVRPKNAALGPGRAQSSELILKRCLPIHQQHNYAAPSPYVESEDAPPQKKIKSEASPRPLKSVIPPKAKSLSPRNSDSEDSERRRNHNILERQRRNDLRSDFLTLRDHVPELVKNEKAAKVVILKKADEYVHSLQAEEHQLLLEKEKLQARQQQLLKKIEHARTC
FLAG-MAX WT (P61244-2, form named): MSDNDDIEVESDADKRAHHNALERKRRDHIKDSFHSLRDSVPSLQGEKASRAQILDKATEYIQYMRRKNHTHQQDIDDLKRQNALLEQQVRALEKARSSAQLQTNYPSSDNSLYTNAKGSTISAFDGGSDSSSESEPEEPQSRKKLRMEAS

One test has as its target HA-MYCN 2D (human) (UniProt P04198). Put plainly: co-IP.
The next test addresses HA-MYCN WT (human) (UniProt P04198). Put plainly: co-IP.

Results are given in words; binding and its absence hold for the method and conditions named. In cells and extracts the contact can be indirect. Some binding calls cover weakened binding; strength is not graded here.

As for “FLAG-MAX WT (from UniProt P61244-2 1-151)”, the binding entry with HA-MYCN 2D (human) and in the test with HA-MYCN WT (human) was “binds” throughout.
